Laboratory results published in PubChem BioAssay AID743255 (National Center for Advancing Translational Sciences (NCATS), 2014).
Out of some 390,000 compounds screened, about 910 (0.23%) were called active. The inconclusive results got no clear call from the source; some entries with a clear call stand among them for comparison. Calls follow the shape of the dose curve; as a rule, active = well fitted inhibition curve with a large enough effect; inconclusive = small, poorly fitted or top-dose-only effect; inactive = no such curve, though single readings can be large or run the other way. Where the call is inconclusive, the potency comes from a doubtful curve fit.

Amino acid sequences for entries named in this document (tags omitted). A change or cut given only in a name is not applied to a line headed by its entry.
UniProt O94782: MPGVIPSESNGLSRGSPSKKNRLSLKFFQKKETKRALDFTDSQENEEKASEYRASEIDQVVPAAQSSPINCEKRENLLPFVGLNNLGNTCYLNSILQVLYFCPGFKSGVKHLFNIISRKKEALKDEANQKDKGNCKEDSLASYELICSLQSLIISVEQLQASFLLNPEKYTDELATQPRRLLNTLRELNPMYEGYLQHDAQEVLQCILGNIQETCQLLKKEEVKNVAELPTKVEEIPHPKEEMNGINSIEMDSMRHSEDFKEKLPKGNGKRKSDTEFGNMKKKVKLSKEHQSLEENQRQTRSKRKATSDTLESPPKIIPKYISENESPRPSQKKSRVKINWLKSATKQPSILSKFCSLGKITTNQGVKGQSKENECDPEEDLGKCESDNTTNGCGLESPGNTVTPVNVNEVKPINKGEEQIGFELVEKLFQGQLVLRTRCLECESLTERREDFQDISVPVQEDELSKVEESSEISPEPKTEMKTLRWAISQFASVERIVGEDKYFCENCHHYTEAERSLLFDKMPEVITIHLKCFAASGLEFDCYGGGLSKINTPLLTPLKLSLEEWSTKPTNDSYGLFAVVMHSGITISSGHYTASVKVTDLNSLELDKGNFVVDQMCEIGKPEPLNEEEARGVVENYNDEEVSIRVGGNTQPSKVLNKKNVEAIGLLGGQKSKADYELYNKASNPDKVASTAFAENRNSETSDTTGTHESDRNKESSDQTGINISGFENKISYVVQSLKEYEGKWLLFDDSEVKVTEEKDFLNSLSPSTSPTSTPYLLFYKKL

Molecular target: Ubiquitin carboxyl-terminal hydrolase 1 (Homo sapiens) (UniProt O94782)
Assay: Inhibitors of USP1/UAF1: Primary Screen; also: nearly all actives have a fitted effect of over 60% in size
Conditions: recombinant USP1/UAF1, Ub-Rhodamine cleavage fluorescence; activity change, negative = inhibition: at 57.1 µM (top of the series)
In short: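 USP1/UAF1 complex (1 nM) preincubated 15 min at room temperature with compound, then Ub-Rho substrate (150 nM final) added. Kinetic fluorescence at 480/540 nm over 6 reads at 60 s intervals; 50 mM HEPES pH 7.8, 0.5 mM EDTA, 0.1 mg/ml BSA, 1 mM TCEP, 0.01% Tween-20.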
% is scaled to controls: 0 for no effect and ±100 for the full control effect; potency is read from the fitted curve at half-maximal effect.

SMILES | Potency | activity change, negative = inhibition
C[C@H](CO)N1C[C@H](C)[C@H](CN(C)C(=O)Nc2cccc3ccccc23)Oc2c(NC(=O)c3ccc(-c4nccs4)cc3)cccc2C1=O | inconclusive: 0.251 µM [inhibitor, full curve, poor fit] | –
Cc1ccc(-c2nn3c(C)nnc3c3ccccc23)cc1S(=O)(=O)NCCO | inconclusive: 5.01 µM [inhibitor, partial curve] | –
CCN(CC)c1ccc(N=Cc2c(O)n(-c3ccccc3)c(=O)[nH]c2=O)cc1 | inconclusive: 39.8 µM [inhibitor, partial curve, poor fit] | –
CC[n+]1c(/C=C/C=C/c2ccc(N(C)C)cc2)sc2ccccc21 | – | inactive: -26.5%
CSc1ccccc1C(=O)C1CCCN(Cc2cccc(C)n2)C1 (centres undefined) | inconclusive: 10 µM [inhibitor, single point] | –
Fc1ccc(CCNCc2ccc(Cl)c(Cl)c2)cc1 | – | inactive: -3.9%
O=C1NC(=S)NC(=O)C1=Cc1ccc(OCc2ccccc2)cc1 | inconclusive: 39.8 µM [inhibitor, partial curve, poor fit] | –
CCN(CC)c1ccc(/C=C2\C(=O)NC(=S)N(c3ccc(OC)cc3OC)C2=O)o1 | inconclusive: 25.1 µM [inhibitor, partial curve] | –
Oc1cc(Cl)ccc1Oc1ccc(Cl)cc1Cl | inconclusive: 39.8 µM [inhibitor, single point] | –
Oc1cc(Cl)c(Cl)c(Cl)c1 | – | inactive: -25.3%
Cc1ccccc1N1C(=O)NC(=O)/C(=C\c2ccc3c(c2)CCCN3Cc2ccccc2)C1=O | inconclusive: 39.8 µM [inhibitor, partial curve, poor fit] | –
CCOc1ccc(CN(CCc2ccc3c(c2)OCO3)Cc2ccc(C)cc2)cc1 | inconclusive: 8.91 µM [inhibitor, partial curve, poor fit] | –
O=C(Cn1c(=O)nc(-c2ccccc2)c2cc(Cl)ccc21)NCc1ccccc1 | inconclusive: 14.1 µM [inhibitor, partial curve, poor fit] | –
COc1ccc(-n2c(O)c(/C=C3\C=Nc4ccc(Br)cc43)c(=O)[nH]c2=O)c(OC)c1 | inconclusive: 39.8 µM [inhibitor, partial curve, poor fit] | –
O=[N+]([O-])c1ccc(C2C3C(c4ccccc4)=NC4(CCCC4)N32)cc1 (centres undefined) | inconclusive: 1 µM [inhibitor, full curve, poor fit] | –
c1cncc(CNC2=NCCCCC2)c1 | – | inactive: 3.59%
FC(F)(F)c1cccc(C2NCc3ccccc3-n3cccc32)c1 (centres undefined) | – | inactive: -34.4%
COc1ccc(OC)c(N2C(=O)/C(=C/c3ccco3)C(=O)NC2=S)c1 | active: 15.8 µM | –
O=C1NCCOC(=O)[C@@H](Cc2ccc(F)cc2)CC/C=C/C[C@@H]1CC(=O)N(CCO)Cc1ccccc1 | inconclusive: 7.94 µM [inhibitor, single point] | –
O=C1Nc2ccccc2Sc2ccccc21 | – | inactive: -14%
CC(C)[C@H](N)C(=O)OCCOCn1cnc2c(=O)[nH]c(N)nc21 | inconclusive: 10 µM [inhibitor, partial curve, poor fit] | –
Nc1ccc2c3c(cccc13)-c1ccccc1-2 | active: 5.62 µM | –

SMILES | Potency | activity change, negative = inhibition
CC(C)(C)N1C(=O)NC(=O)/C(=C\c2ccc3c(c2)CCN3CCCCl)C1=O | inconclusive: 31.6 µM [inhibitor, single point] | –
Cc1ccc(OCCOc2cccc(C=C3C(=O)NC(=O)NC3=O)c2)c(C)c1 | inconclusive: 39.8 µM [inhibitor, partial curve] | –
Cn1ncnc2c(=O)n(C)c(=O)nc1-2 | active: 0.0316 µM | –
CCOc1ccccc1N(CC(=O)NCCc1ccc(OC)cc1)S(=O)(=O)c1ccc(C)cc1 | inconclusive: 4.47 µM [inhibitor, partial curve] | –
CN(C)C1(c2nnnn2CCOC(=O)Nc2ccc(Cl)cc2)CCCCC1 | inconclusive: 44.7 µM [inhibitor, partial curve, poor fit] | –
O=C1NC(=O)N(CCc2ccc(F)cc2)C(=O)/C1=C/c1ccco1 | – | inactive: -10.5%
CCOC(=O)[C@]1(C#N)[C@@H]2C=CC(C(N)=O)=CN2[C@@H](C(N)=O)[C@@H]1c1ccc(F)cc1 | inconclusive: 7.08 µM [inhibitor, full curve, poor fit] | –
CN1C[C@H](CO)C=C2c3cccc4[nH]cc(c34)C[C@H]21 | inconclusive: 39.8 µM [inhibitor, partial curve, poor fit] | –
CCc1nc(SC)ncc1C(=O)Nc1ccc(Cl)cc1C(=O)c1ccccc1 | – | inactive: -7.58%
ClCCN(CCCl)c1ccc(C=NNc2ncccn2)cc1 | inconclusive: 6.31 µM [inhibitor, single point] | –
Oc1ccc2c3c1OC1c4oc5ccccc5c4C[C@@]4(O)[C@@H](C2)N(CC2CC2)CC[C@]314 (some centres undefined) | inconclusive: 31.6 µM [inhibitor, single point] | –
Cc1cccc(-c2nn3c(=O)cc(CN4CCN(C(=O)COc5ccc(Cl)cc5)CC4)nc3s2)c1 | – | inactive: -14.2%
COc1ccc(N2C(=O)NC(=O)/C(=C/c3ccc([N+](=O)[O-])s3)C2=O)cc1 | active: 22.4 µM | –
O=C(CCn1c(=O)oc2ccccc21)N1CCC2(CC1)OCCO2 | – | inactive: 1.11%
Cc1ccc(NC(=O)CSc2nnc([C@@H](N)Cc3c[nH]c4ccccc34)o2)c(C)c1 | inconclusive: 0.251 µM [inhibitor, full curve, poor fit] | –
O=C(O)CC1OCC=C2CN3CCC45C6=CC(=O)C(=O)C([N+](=O)[O-])=C6NC4C1C2CC35 (centres undefined) | active: 5.01 µM | –
COc1cc(/C=C/c2nc3ccccc3c(=O)n2-c2ccccc2O)ccc1O | inconclusive: 44.7 µM [inhibitor, partial curve] | –
C/C(=C\c1ccc(N(C)C)cc1)[N+](=O)[O-] | – | inactive: 1.46%
C[n+]1c2ccccc2nc2ccc(NCCO)cc21 | inconclusive: 15.8 µM [inhibitor, partial curve] | –
COCCCn1c(N)c(C(=O)NCc2ccco2)c2nc3ccccc3nc21 | inconclusive: 39.8 µM [inhibitor, partial curve] | –
C[C@H]1CC[C@@H]2[C@@H](C)[C@H]3[C@H](C[C@H]4[C@@H]5CC=C6C[C@@H](O[C@@H]7O[C@H](CO)[C@H](O)[C@H](O[C@@H]8O[C@H](CO)[C@@H](O)[C@H](O)[C@H]8O)[C@H]7O[C@@H]7O[C@@H](C)[C@H](O)[C@@H](O)[C@H]7O)CC[C@]6(C)[C@H]5CC[C@]34C)N2C1 | inconclusive: 0.0794 µM [inhibitor, full curve, poor fit] | –
CCCn1ncc(CN2CCCC(C(=O)c3cccc(OC)c3)C2)c1C (centres undefined) | – | inactive: -20%

SMILES | Potency | activity change, negative = inhibition
Cc1nc2ccccc2c(=O)n1-c1ccncc1 | inconclusive: 11.2 µM [inhibitor, partial curve, poor fit] | –
COc1ccccc1NC(=O)Oc1cccc(OC(=O)c2ccccc2)c1 | inconclusive: 44.7 µM [inhibitor, partial curve, poor fit] | –
CCOC(=O)c1cc2c(cn1)[nH]c1ccccc12 | inconclusive: 50.1 µM [inhibitor, partial curve, poor fit] | –
O=C(c1cccc(Cl)c1)C1CCCN(Cc2cccc3cnccc23)C1 (centres undefined) | inconclusive: 56.2 µM [inhibitor, partial curve, poor fit] | –
O=C1NC(=O)C(=Cc2coc3ccccc3c2=O)C(=O)N1 | inconclusive: 44.7 µM [inhibitor, partial curve] | –
CC(C(=O)c1ccc2ccccc2c1)N1CCCCC1 (centres undefined) | – | inactive: -9.83%
Nc1c(Br)cc2c3c(cccc13)-c1ccccc1-2 | inconclusive: 11.2 µM [inhibitor, partial curve] | –
O=C(NN=Cc1ccc(N(CCCl)CCCl)cc1)c1cccnc1 | inconclusive: 50.1 µM [inhibitor, partial curve, poor fit] | –
COc1ccc2c(c1OC)CN1CCc3cc4c(cc3[C@H]1C2)OCO4 | inconclusive: 1.41 µM [inhibitor, full curve, poor fit] | –
Cc1c(OCC(F)(F)F)ccnc1CS(=O)c1nc2ccccc2[nH]1 (centres undefined) | inconclusive: 12.6 µM [inhibitor, partial curve] | –
Cc1ccc(NS(=O)(=O)c2c(F)cc(F)c(Cl)c2F)cc1S(=O)(=O)N1CCOCC1 | inconclusive: 7.08 µM [inhibitor, full curve, poor fit] | –
COC(=O)C1=CO[C@@H](OC2OC(CO)C(O)C(O)C2O)[C@@H]2C(CO)=CC[C@H]12 (some centres undefined) | inconclusive: 50.1 µM [inhibitor, single point] | –
N[C@@H](CCl)C(=O)O | inconclusive: 89.1 µM [inhibitor, partial curve, poor fit] | –
Cc1cc(C=C2C(=O)N(C)C(=S)N(C)C2=O)c(C)n1C1CCCCC1 | – | inactive: -17.5%
CC(C)(C)NCC(O)c1cc(Cl)c(N)c(Cl)c1 (centres undefined) | inconclusive: 70.8 µM [inhibitor, partial curve, poor fit] | –
COc1ccc(Cc2c(O)[nH]c(=S)[nH]c2=O)cc1 | – | inactive: -7.58%
CCOC(=O)c1c(NS(=O)(=O)c2ccccc2)n(CCCOC)c2nc3ccccc3nc12 | active: 1.78 µM | –
CCN(CCO)c1ccc(N=Cc2c(O)n(C)c(=S)[nH]c2=O)cc1 | inconclusive: 39.8 µM [inhibitor, partial curve, poor fit] | –
COC(=O)[C@@H](N)CCCN=C(N)N[N+](=O)[O-] | inconclusive: 12.6 µM [inhibitor, partial curve] | –
CCC1(C)OC(c2ccccc2)=C/C(=C/C=C2C(=O)NC(=O)NC2=O)O1 (centres undefined) | inconclusive: 28.2 µM [inhibitor, partial curve] | –
